PMC7985502

B1: SMC1A (protein, UniProt Q14683 1-1233)
chain: MGFLKLIEIENFKSYKGRQIIGPFQRFTAIIGPNGSGKSNLMDAISFVLGEKTSNLRVKTLRDLIHGAPVGKPAANRAFVSMVYSEEGAEDRTFARVIVGGSSEYKINNKVVQLHEYSEELEKLGILIKARNFLVFQGAVESIAMKNPKERTALFEEISRSGELAQEYDKRKKEMVKAEEDTQFNYHRKKNIAAERKEAKQEKEEADRYQRLKDEVVRAQVQLQLFKLYHNEVEIEKLNKELASKNKEIEKDKKRMDKVEDELKEKKKELGKMMREQQQIEKEIKEKDSELNQKRPQYIKAKENTSHKIKKLEAAKKSLQNAQKHYKKRKGDMDELEKEMLSVEKARQEFEERMEEESQSQGRDLTLEENQVKKYHRLKEEASKRAATLAQELEKFNRDQKADQDRLDLEERKKVETEAKIKQKLREIEENQKRIEKLEEYITTSKQSLEEQKKLEGELTEEVEMAKRRIDEINKELNQVMEQLGDARIDRQESSRQQRKAEIMESIKRLYPGSVYGRLIDLCQPTQKKYQIAVTKVLGKNMDAIIVDSEKTGRDCIQYIKEQRGEPETFLPLDYLEVKPTDEKLRELKGAKLVIDVIRYEPPHIKKALQYACGNALVCDNVEDARRIAFGGHQRHKTVALDGTLFQKSGVISGGASDLKAKARRWDEKAVDKLKEKKERLTEELKEQMKAKRKEAELRQVQSQAHGLQMRLKYSQSDLEQTKTRHLALNLQEKSKLESELANFGPRINDIKRIIQSREREMKDLKEKMNQVEDEVFEEFCREIGVRNIREFEEEKVKRQNEIAKKRLEFENQKTRLGIQLDFEKNQLKEDQDKVHMWEQTVKKDENEIEKLKKEEQRHMKIIDETMAQLQDLKNQHLAKKSEVNDKNHEMEEIRKKLGGANKEMTHLQKEVTAIETKLEQKRSDRHNLLQACKMQDIKLPLSKGTMDDISQEEGSSQGEDSVSGSQRISSIYAREALIEIDYGDLCEDLKDAQAEEEIKQEMNTLQQKLNEQQSVLQRIAAPNMKAMEKLESVRDKFQETSDEFEAARKRAKKAKQAFEQIKKERFDRFNACFESVATNIDEIYKALSRNSSAQAFLGPENPEEPYLDGINYNCVAPGKRFRPMDNLSGGEKTVAALALLFAIHSYKPAPFFVLDEIDAALDNTNIGKVANYIKEQSTCNFQAIVISLKEEFYTKAESLIGVYPEQGDCVISKVLTFDLTKYPDANPNPNEQ
B2: RNA helicase and ATPase (UPF1) (protein, UniProt Q92900 1-1129)
chain: MSVEAYGPSSQTLTFLDTEEAELLGADTQGSEFEFTDFTLPSQTQTPPGGPGGPGGGGAGGPGGAGAGAAAGQLDAQVGPEGILQNGAVDDSVAKTSQLLAELNFEEDEEDTYYTKDLPIHACSYCGIHDPACVVYCNTSKKWFCNGRGNTSGSHIVNHLVRAKCKEVTLHKDGPLGETVLECYNCGCRNVFLLGFIPAKADSVVVLLCRQPCASQSSLKDINWDSSQWQPLIQDRCFLSWLVKIPSEQEQLRARQITAQQINKLEELWKENPSATLEDLEKPGVDEEPQHVLLRYEDAYQYQNIFGPLVKLEADYDKKLKESQTQDNITVRWDLGLNKKRIAYFTLPKTDSGNEDLVIIWLRDMRLMQGDEICLRYKGDLAPLWKGIGHVIKVPDNYGDEIAIELRSSVGAPVEVTHNFQVDFVWKSTSFDRMQSALKTFAVDETSVSGYIYHKLLGHEVEDVIIKCQLPKRFTAQGLPDLNHSQVYAVKTVLQRPLSLIQGPPGTGKTVTSATIVYHLARQGNGPVLVCAPSNIAVDQLTEKIHQTGLKVVRLCAKSREAIDSPVSFLALHNQIRNMDSMPELQKLQQLKDETGELSSADEKRYRALKRTAERELLMNADVICCTCVGAGDPRLAKMQFRSILIDESTQATEPECMVPVVLGAKQLILVGDHCQLGPVVMCKKAAKAGLSQSLFERLVVLGIRPIRLQVQYRMHPALSAFPSNIFYEGSLQNGVTAADRVKKGFDFQWPQPDKPMFFYVTQGQEEIASSGTSYLNRTEAANVEKITTKLLKAGAKPDQIGIITPYEGQRSYLVQYMQFSGSLHTKLYQEVEIASVDAFQGREKDFIILSCVRANEHQGIGFLNDPRRLNVALTRARYGVIIVGNPKALSKQPLWNHLLNYYKEQKVLVEGPLNNLRESLMQFSKPRKLVNTINPGARFMTTAMYDAREAIIPGSVYDRSSQGRPSSMYFQTHDQIGMISAGPSHVAAMNIPIPFNLVMPPMPPPGYFGQANGPAAGRGTPKGKTGRGGRQKNRFGLPGPSQTNLPNSQASQDVASQPFSQGALTQGYISMSQPSQMSQPGLSQPELSQDSYLGDEFKSQIDVALSQDSTYQGERAYQHGGVTGLSQY
B3: SEC24B (protein, UniProt O95487 1-1268)
chain: MSAPAGSSHPAASARIPPKFGGAAVSGAAAPAGPGAGPAPHQQNGPAQNQMQVPSGYGLHHQNYIAPSGHYSQGPGKMTSLPLDTQCGDYYSALYTVPTQNVTPNTVNQQPGAQQLYSRGPPAPHIVGSTLGSFQGAASSASHLHTSASQPYSSFVNHYNSPAMYSASSSVASQGFPSTCGHYAMSTVSNAAYPSVSYPSLPAGDTYGQMFTSQNAPTVRPVKDNSFSGQNTAISHPSPLPPLPSQQHHQQQSLSGYSTLTWSSPGLPSTQDNLIRNHTGSLAVANNNPTITVADSLSCPVMQNVQPPKSSPVVSTVLSGSSGSSSTRTPPTANHPVEPVTSVTQPSELLQQKGVQYGEYVNNQASSAPTPLSSTSDDEEEEEEDEEAGVDSSSTTSSASPMPNSYDALEGGSYPDMLSSSASSPAPDPAPEPDPASAPAPASAPAPVVPQPSKMAKPFGYGYPTLQPGYQNATAPLISGVQPSNPVYSGFQQYPQQYPGVNQLSSSIGGLSLQSSPQPESLRPVNLTQERNILPMTPVWAPVPNLNADLKKLNCSPDSFRCTLTNIPQTQALLNKAKLPLGLLLHPFRDLTQLPVITSNTIVRCRSCRTYINPFVSFIDQRRWKCNLCYRVNDVPEEFMYNPLTRSYGEPHKRPEVQNSTVEFIASSDYMLRPPQPAVYLFVLDVSHNAVEAGYLTILCQSLLENLDKLPGDSRTRIGFMTFDSTIHFYNLQEGLSQPQMLIVSDIDDVFLPTPDSLLVNLYESKELIKDLLNALPNMFTNTRETHSALGPALQAAFKLMSPTGGRVSVFQTQLPSLGAGLLQSREDPNQRSSTKVVQHLGPATDFYKKLALDCSGQQTAVDLFLLSSQYSDLASLACMSKYSAGCIYYYPSFHYTHNPSQAEKLQKDLKRYLTRKIGFEAVMRIRCTKGLSMHTFHGNFFVRSTDLLSLANINPDAGFAVQLSIEESLTDTSLVCFQTALLYTSSKGERRIRVHTLCLPVVSSLADVYAGVDVQAAICLLANMAVDRSVSSSLSDARDALVNAVVDSLSAYGSTVSNLQHSALMAPSSLKLFPLYVLALLKQKAFRTGTSTRLDDRVYAMCQIKSQPLVHLMKMIHPNLYRIDRLTDEGAVHVNDRIVPQPPLQKLSAEKLTREGAFLMDCGSVFYIWVGKGCDNNFIEDVLGYTNFASIPQKMTHLPELDTLSSERARSFITWLRDSRPLSPILHIVKDESPAKAEFFQHLIEDRTEAAFSYYEFLLHVQQQICK

Assays:
[1] = target: EGFP-tagged wild-type SEC23B (human) (UniProt Q15437); experiment: affinity purification with mass spectrometry; anti-GFP (Abcam ab290) immunoprecipitation from lysates of stable Nthy-ori 3-1 cells, 10 mg total protein as 2 mg/ml lysates; cells untreated or treated with MG132 (10 uM, 24 h); normal rabbit IgG and Nthy-EGFP cells as negative controls; SDS-PAGE, then mass spectrometry
[2] = target: EGFP-tagged p.Val594Gly mutant SEC23B (human) (UniProt Q15437); experiment: as above

| Binder | binding [1] | binding [2] |
| --- | --- | --- |
| B1 | binds |  |
| B2 | binds |  |
| B3 |  | binds |

These are yes or no findings as the source states them, for the method shown. Binding seen in cells or lysates may run through a third protein. Here binding means that the protein was enriched with, or labelled near, the bait; the list need not be complete. For part of these data: Where a sequence is shown, tags or fusion partners need not be part of it.
